Experimental data taken from patent publication US9034825B2, “Treatment of myocardial injury with humanin analogs” (Albert Einstein College of Medicine of Yeshiva University, priority 2007, dated 2015).
Not every detail of the peptide structures is certain; ends, links or a residue may be inferred. Where no end group is shown, it is not given here.

The chains behind the UniProt entries cited, without tags or fusion partners. Residues count along the entry.
UniProt P17936, 28-291: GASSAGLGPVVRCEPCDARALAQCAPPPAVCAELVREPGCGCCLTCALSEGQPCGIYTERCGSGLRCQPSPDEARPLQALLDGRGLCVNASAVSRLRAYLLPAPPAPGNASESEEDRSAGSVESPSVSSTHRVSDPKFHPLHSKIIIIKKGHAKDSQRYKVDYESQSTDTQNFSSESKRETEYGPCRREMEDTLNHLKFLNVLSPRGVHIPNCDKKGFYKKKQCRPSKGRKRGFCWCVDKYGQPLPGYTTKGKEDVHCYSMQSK

Columns and labels:
IGFBP-3 = IGFBP-3 (Homo sapiens, UniProt P17936); assay: Dot blots probed with radiolabeled IGFBP-3; format: binding; details: FIG. 17A
Procedure: (§1) For acute signaling studies, rats were injected ICV with either aCSF, 20 μg of HN or F6A (dissolved in aCSF) over 5 min, and sacrificed 30 min later. Tissue sample were obtained from mediobasal hypothalamus, liver and muscle. Samples were also obtained from these tissues at the end of the clamp and western blot analysis was performed as described previously (Muzumdar et al. 2003) The blots were scanned using the LI-COR Odyssey (LI-COR, Lincoln, Nebr., USA) and quantified using Odyssey 2.0 software based on direct fluorescence measurement. Dot blots were performed by blotting 50 ng of humanin, HN-analogues, and IGF on nitrocellulose, incubating with 125-I-labeled-IGFBP-3, autoradiography and scanning.

Sprague-Dawley rats [1] = assay: ICV infusion of humanin or F6A HN with basal and hyperinsulinemic clamp (Example 2); format: in vivo, rat
Source text: Young (3 mo old, n=6 in each group), male Sprague-Dawley rats (Charles River Laboratories, Wilmington, Mass.) were used for this study. Rats were housed in individual cages and were subjected to a standard light (6:00 AM to 6:00 PM)—dark (6:00 PM to 6:00 AM) cycle. All rats were fed ad libitum using regular rat chow that consisted of 64% carbohydrate, 30% protein, and 6% fat with a physiological fuel value of 3.3-kcal/g chow. 2 to 4 weeks before the in vivo study, the rats were anesthetized by inhalation of isoflurane and ICV cannula was placed in the third ventricle for infusions of humanin, humanin analog F6A HN or artificial CSF (aCSF), as previously described (Muzumdar et al., 2003) (FIG. 6). Briefly, a 26-gauge stainless steel guide cannula (Plastics One, Roanoke, Va.) was chronically implanted into the third ventricles using the following coordinates from bregma: anterior-posterior; +0.2 mm dorsal-ventral; −9.0 mm medial-lateral; 0.0 directly on the mid-sagittal suture, followed by a 28-gauge dummy cannula, inserted to prevent clogging of the guide cannula. The implant was secured to the skull with Caulk Grip dental cement, and the skin was closed over the implant using wound clips. The recovery of rats from the surgical stress was monitored with daily weight, food intake, and movement.
Upon recovery of body weight, usually a week, indwelling catheters were placed in the right internal jugular vein and in the left carotid artery (Muzumdar et al., 2003). The venous catheter was extended to the level of the right atrium, and the arterial catheter was advanced to the level of the aortic arch. Recovery was continued until body weight was within 3% of the pre-operative weight (˜4-6 days). In the rats that received peripheral humanin, only the vascular catheters were placed.
Studies were performed in unrestrained rats using the insulin clamp technique, in combination with high performance liquid chromatography-purified [3-^3H]glucose, as described previously (Liu et al., 1998). Food was removed for ˜5 h before the in vivo protocol. All studies lasted 360 min and included a 120-min equilibration period, a 120-min basal period for assessment of the basal glucose turnover, and a 120-min hyperinsulinemic clamp period. All rats received ICV infusions (bolus followed by continuous ICV infusions of humanin, F6A HN or aCSF, depending on the group) over the entire 6 hours of the study. At the beginning of the basal period and 120 min before starting the glucose/insulin infusions, a primed-continuous infusion of high performance liquid chromatography-purified [3-^3H]glucose (NEN Life Science Products, Boston, Mass.; 20 μCi of bolus, 0.2 μCi/min) was initiated and maintained throughout the remaining 4 h of the study. In the final 2 hours of the study, the rats were subjected to hyperinsulinemic clamp. The protocol followed during the insulin clamp study was similar to that previously described (Liu et al., 1998). Briefly, a primed-continuous infusion of regular insulin (3 milliunits/kg-min) was administered, and a variable infusion of a 25% glucose solution was started and periodically adjusted to clamp the plasma glucose concentration at 7-8 mM. To prevent endogenous insulin secretion and in order to control for possible effects of ICV infusions on the endocrine pancreas, somatostatin (1.5 μg/kg-min) was also infused in all the groups.
A bolus of humanin (6 μg) was followed by a continuous infusion over 6 hours (total dose of 18 μg, 0.1 μg/kg/min).
F6A HN has one amino acid substitution (F6A-phenylalanine to alanine on position 6) and has been characterized. A bolus of F6 A HN ([…]) was followed by a continuous infusion over 6 hours (total 18 μg, 0.1 μg/kg/min).
Plasma glucose (sample volume 10 μl) was measured by the glucose oxidase method (Glucose Analyzer II, Beckman Instruments, Palo Alto, Calif.). […]

Sprague-Dawley rats [2] = assay: ICV infusion with pancreatic insulin clamp or hyperinsulinemic clamp (Example 5); format: in vivo, rat; details: hyperinsulinemic clamp
Procedure: Studies were conducted with 92 three-month-old male Sprague-Dawley rats (Charles River Laboratories). Rats were housed in individual cages and subjected to a standard light-dark cycle. Rats were prepared for clamps as described in FIG. 15A. Three weeks before the in vivo studies catheters were implanted in the third cerebral ventricle (Muzumdar et al. 2003). One week before clamp experiments, catheters were placed in the right internal jugular vein and left carotid artery (Liu et al. 1998).
A primed-continuous ICV infusion of HN, F6A-HN (total dose of 20 μg), STAT-3 inhibitor (75 pmol) (Buettner et al. 2006), or aCSF was initiated at t=0 and maintained for the remainder of the experiment (FIG. 15A). Pancreatic insulin-clamp studies or euglycemic-hyperinsulinemic clamps were performed in conscious, unrestrained, catheterized mice for last 120 minutes as described previously (Bahar et al. 2006, Muzumdar et al. 2006). In the intra-venous group, HN, F6A, Colivelin, and HNGF6A were infused intravenously and hyperinsulinemic clamps were performed as described previously (Loeb et al. 2005). Estimation of glucose, glucose fluxes, insulin, FFA were done as described previously (Loeb et al. 2005). […]

[3] = system: phospho Akt and ACC in muscle; assay: Western blot of skeletal muscle insulin signaling after ICV infusion; format: in vivo, rat; details: muscle tissues from ICV-infused rats
Procedure: The indicated tissues were homogenized in 20 mM MOPS, 2 mM EGTA, 5 mM EDTA, 30 mM sodium fluoride, 40 mM beta-glycerophosphate, 10 mM sodium pyrophosphate, 2 mM orthovanadate, 0.5% NP-40 and complete protease inhibitor cocktail (Roche, Indianapolis, Ind., USA) and centrifuged at 12,000 g for 15 min and the supernatant was harvested while carefully avoiding the lipid layer on top. Protein concentration was measured with a BCA protein quantification kit (Pierce, Rockford, Ill., USA). Protein extracts were separated on 4-12% NuPAGE (Invitrogen, Carlsbad, Calif., USA) gels and were blotted onto Immobilon FL PVDF (Millipore, Billerica, Mass., USA). […] After three washes in TBS-T and a final wash in TBS the blots were scanned using the LI-COR Odyssey (LI-COR, Lincoln, Nebr., USA) and quantified using Odyssey 2.0 software based on direct fluorescence measurement.
as §1, with “Tissue sample were obtained from mediobasal hypothalamus, liver and muscle.” left out, “Dot blots were performed by blotting 50 ng of humanin, HN-analogues, and IGF on nitrocellulose, incubating with 125-I-labeled-IGFBP-3, autoradiography and scanning.” left out

PEPCK mRNA in the liver = assay: Hepatic PEPCK mRNA by qRT-PCR at end of clamp after ICV infusion; format: in vivo, rat; details: ICV infusion for 6 h, end of clamp (Example 2)
Procedure: Total RNA was extracted following Clontech's protocol. First-stranded cDNA was synthesized from 1 μg of total RNA using Superscript III (Gibco, Gaithersburg, Md.). Hepatic glucose-6-phosphatase (Glc-6-Pase) and phosphoenolpyruvate carboxykinase (PEPCK) mRNA abundance were assessed by qRT-PCR as described previously (Buettner et al., 2005). Quantification of these peptides and their copy number was normalized for GAPDH and 18S to correct for loading irregularities. The data presented are those normalized by GAPDH.

Sprague-Dawley rats [4] = assay: Intravenous infusion of humanin or analogs during hyperinsulinemic clamp; format: in vivo, rat; details: IV 0.0375 mg/kg/hr
Procedure: To study the acute effects of an infusion of IGFBP-3, two groups of awake, unstressed, chronically catheterized Sprague-Dawley rats (˜300 g) were studied for 300 min (n=3 in each group) under hyperinsulinemic clamp (as previously described). From 120 min the rats received a primed continuous infusion of humanin (0.375 mg/kg/hr) or saline (control) for an additional 2 h. Plasma samples for determination of [3H]glucose and [3H] water specific activities were obtained at 10-min intervals during the basal and clamp periods. Steady state conditions for the plasma glucose concentration and specific activity were achieved within 90 min in all the studies. Plasma samples for determination of HN, insulin and FFA concentrations were collected at 30-min intervals throughout the study. All determinations were also performed on portal vein blood obtained at the end of the experiments. The total amount of blood drawn during the entire study for various assays is ˜3 cc. After separation of plasma (subsequently used for analysis), the red blood cells were reconstituted in saline and infused back into the animal. […]

[5] = ICV 18 μg over 6 h, basal period
[6] = ICV 18 μg over 6 h, hyperinsulinemic clamp
[7] = ICV F6A HN, hyperinsulinemic clamp

Sequence: MAPRGASCLLLLTSEIDLPVKRRA [F6A HN, maprgascll lltseidlpv krra]
- ability to bind IGFBP-3 (IGFBP-3): does not bind IGFBP-3
- Glycogen synthesis, Basal (Sprague-Dawley rats [1]; [5]): 5.06 ± 0.55
- Glycolysis, Basal (Sprague-Dawley rats [1]; [5]): 5.7 ± 1.05 mg/kg/min
- HGP, Basal (Sprague-Dawley rats [1]; [5]): 10.83 ± 0.6 mg/kg/min
- FFA (Sprague-Dawley rats [1]; [6]): 0.49 ± 0.08 mEq/L
- Glycogen synthesis, Clamp (Sprague-Dawley rats [1]; [6]): 9.4 ± 1.51
- Glycolysis, Clamp (Sprague-Dawley rats [1]; [6]): 12.0 ± 0.9 mg/kg/min
- HGP, Clamp (Sprague-Dawley rats [1]; [6]): 0.4 ± 0.2 mg/kg/min
- Rd, Clamp (Sprague-Dawley rats [1]; [6]): 21.4 ± 0.03 mg/kg/min
- GIR, Clamp (Sprague-Dawley rats [1]; ICV 18 μg over 6 h, hyperinsulinemic clamp 3 mU/kg/min): 22.6 ± 2.4 mg/kg/min
- Rd compared to controls (Sprague-Dawley rats [1]; [7]): did not result in significant changes
- suppression of HGP (Sprague-Dawley rats [1]; [7]): almost completely suppressed
- suppression of HGP (Sprague-Dawley rats [1]; ICV F6A HN, hyperinsulinemic clamp, listed as F6A mutant of humanin): almost zero
- peripheral glucose infusion rate (Sprague-Dawley rats [2]): increased
- suppression of hepatic glucose production (Sprague-Dawley rats [2]): ~100%
- pAKT and acetyl CoA carboxylase in muscle compared to aCSF [3]: significantly increased
- PEPCK mRNA in the liver, ratio to GAPDH (PEPCK mRNA in the liver): 10.54 ±1.4
- peripheral insulin action (Sprague-Dawley rats [4]): Neither HN, nor the non-BP3-binding F6AHN (at doses of 0.0375 mg/kg/hr) altered peripheral insulin action
